No constants are given. Whether binding was seen depends on the method and setting.
Legend:
#16 = target: T1, #16; experiment: ELISA on peptides of the GPC1 peptide library
T1 sequence (peptide): LEETLAEFWARLLERLFK

#13 = target: T2, #13; experiment: ELISA on peptides of the GPC1 peptide library
T2 sequence (peptide): ELYTQNARAFRDLYSELR

B1: D4 camel single-domain antibody (VHH)
VHH: QVQLVESGGGLVQPGGSLRLSCVASGYSYSIGYMAWFRQAPGKERAWVASRYTGDGGAVFDDAVKGRFTTSQESAGNTFDLQMDSLKPEDTAMYYCAAKGPGFGRWEYWGRGTQVTVSS
notes: the methods describe D4 at 1 ug/ml detected with anti-FLAG; also called D4 antibody; D4 clone; not shown: FLAG and His tags (detected with anti-FLAG; 'His-tagged D4')
B1 was tested, and the binding (#16) was “no binding (tested: not given)” and the binding (#13) was “no binding (tested: not given)”.

Reference: patent US20230340146A1 (US Dept. of Health and Human Services, published 2023)
